Results reported in patent US20250304526A1, “HIGH AND MULTIPLE REDOX POTENTIAL, STABLE, AND SOLUBLE BIS-DIARYLAMINE DERIVATIVES AND USES THEREOF” (University of Kentucky Research Foundation, priority 2024, published 2025).

Experiment: Symmetric flow cell cycling
Conditions: for Retention of first cycle capacity in flow cell: 10 mM 3 + PF6 salt in 0.1 M TBAPF6/CH3CN, 5 mA cm^−2
Protocol: A custom made, small volume custom flow cell with interdigitated flow fields was used in this work as used previously in refs. The 2.55 cm^2 flow cell consisted of two compartments separated by a 175 m thick Daramic membrane. 10 mL of equimolar solution (total concentration of 10 mM) of compound 3 and its PF6 salt was used in each reservoir (Savillex) initially. The electrolyte was circulated at 10 mL min^−1 using peristaltic pump (Masterflex L/S Series) equipped with norprene tubing (Masterflex). Capacity retention study was performed and data was collected using a VSP potentiostat (BioLogic). The flow cell was then cycled for 200 cycles at a current density of 5 mA cm^−2 with potential cut-offs of ±0.45 V. Electrochemical impedance spectroscopy (EIS) was collected using the same instrument before and after cycling at the open-circuit potential with a sinusoidal amplitude of 10 mV between 200 kHz and 10 mHz (5 points per decade).
Based on the chemical and electrochemical stability results shown above and the oxidation potentials of all molecules, compound 3 is a good initial candidate for implementation in a RFB. For the proof of concept, a symmetric flow cell was used to study the cycling stability of our newly developed catholyte molecule in its neutral and charged form. An equimolar mixture of compound 3 and its corresponding hexafluorophosphate salt (FIG. 10A) was initially used in both the compartments of the flow cell. […] The ohmic contribution (5.5 Ωcm^2) estimated from the high frequency intercept of the Nyquist plot is consistent with other non-aqueous studies using Daramic separator.
Since compound 3 is soluble to −13 mM, we conducted cycling studies at 10 mM (in 0.1 M TBAPF6/CH3CN) and used a current density of 5 mA cm^−2. The cell accessed 60% of the theoretical capacity (2.68 mAh) in the first cycle. The lower accessed capacity may be due to mass transport limitations and can be optimized using lower current density. Though the accessed capacity was lower, the capacity remained stable for 200 cycles (FIG. 10B). […]

Question: For `Cc1ccc(C(F)(F)F)cc1N(c1ccc(N(c2cc(C(F)(F)F)ccc2C)c2cc(C(F)(F)F)ccc2C)cc1)c1cc(C(F)(F)F)ccc1C` [3^+⋅], which “Retention of first cycle capacity in flow cell” value (after 100 cycles) is on record?
Answer: Its value is 97%.

Question: And the “Retention of first cycle capacity in flow cell” value (after 200 cycles)?
Answer: Its value is 95%.

Question: And the “Average coulombic efficiency in flow cell” value (over 200 cycles)?
Answer: Its value is 97%.
